Results are given in words; binding and its absence hold for the method and conditions named. Binding seen in cells or lysates may run through a third protein. A yes stands for co-enrichment or nearness to the bait. Other partners may have been found.

Sequences of proteins named here, by UniProt entry; tags and fusion partners are left off.
UniProt Q96SN8: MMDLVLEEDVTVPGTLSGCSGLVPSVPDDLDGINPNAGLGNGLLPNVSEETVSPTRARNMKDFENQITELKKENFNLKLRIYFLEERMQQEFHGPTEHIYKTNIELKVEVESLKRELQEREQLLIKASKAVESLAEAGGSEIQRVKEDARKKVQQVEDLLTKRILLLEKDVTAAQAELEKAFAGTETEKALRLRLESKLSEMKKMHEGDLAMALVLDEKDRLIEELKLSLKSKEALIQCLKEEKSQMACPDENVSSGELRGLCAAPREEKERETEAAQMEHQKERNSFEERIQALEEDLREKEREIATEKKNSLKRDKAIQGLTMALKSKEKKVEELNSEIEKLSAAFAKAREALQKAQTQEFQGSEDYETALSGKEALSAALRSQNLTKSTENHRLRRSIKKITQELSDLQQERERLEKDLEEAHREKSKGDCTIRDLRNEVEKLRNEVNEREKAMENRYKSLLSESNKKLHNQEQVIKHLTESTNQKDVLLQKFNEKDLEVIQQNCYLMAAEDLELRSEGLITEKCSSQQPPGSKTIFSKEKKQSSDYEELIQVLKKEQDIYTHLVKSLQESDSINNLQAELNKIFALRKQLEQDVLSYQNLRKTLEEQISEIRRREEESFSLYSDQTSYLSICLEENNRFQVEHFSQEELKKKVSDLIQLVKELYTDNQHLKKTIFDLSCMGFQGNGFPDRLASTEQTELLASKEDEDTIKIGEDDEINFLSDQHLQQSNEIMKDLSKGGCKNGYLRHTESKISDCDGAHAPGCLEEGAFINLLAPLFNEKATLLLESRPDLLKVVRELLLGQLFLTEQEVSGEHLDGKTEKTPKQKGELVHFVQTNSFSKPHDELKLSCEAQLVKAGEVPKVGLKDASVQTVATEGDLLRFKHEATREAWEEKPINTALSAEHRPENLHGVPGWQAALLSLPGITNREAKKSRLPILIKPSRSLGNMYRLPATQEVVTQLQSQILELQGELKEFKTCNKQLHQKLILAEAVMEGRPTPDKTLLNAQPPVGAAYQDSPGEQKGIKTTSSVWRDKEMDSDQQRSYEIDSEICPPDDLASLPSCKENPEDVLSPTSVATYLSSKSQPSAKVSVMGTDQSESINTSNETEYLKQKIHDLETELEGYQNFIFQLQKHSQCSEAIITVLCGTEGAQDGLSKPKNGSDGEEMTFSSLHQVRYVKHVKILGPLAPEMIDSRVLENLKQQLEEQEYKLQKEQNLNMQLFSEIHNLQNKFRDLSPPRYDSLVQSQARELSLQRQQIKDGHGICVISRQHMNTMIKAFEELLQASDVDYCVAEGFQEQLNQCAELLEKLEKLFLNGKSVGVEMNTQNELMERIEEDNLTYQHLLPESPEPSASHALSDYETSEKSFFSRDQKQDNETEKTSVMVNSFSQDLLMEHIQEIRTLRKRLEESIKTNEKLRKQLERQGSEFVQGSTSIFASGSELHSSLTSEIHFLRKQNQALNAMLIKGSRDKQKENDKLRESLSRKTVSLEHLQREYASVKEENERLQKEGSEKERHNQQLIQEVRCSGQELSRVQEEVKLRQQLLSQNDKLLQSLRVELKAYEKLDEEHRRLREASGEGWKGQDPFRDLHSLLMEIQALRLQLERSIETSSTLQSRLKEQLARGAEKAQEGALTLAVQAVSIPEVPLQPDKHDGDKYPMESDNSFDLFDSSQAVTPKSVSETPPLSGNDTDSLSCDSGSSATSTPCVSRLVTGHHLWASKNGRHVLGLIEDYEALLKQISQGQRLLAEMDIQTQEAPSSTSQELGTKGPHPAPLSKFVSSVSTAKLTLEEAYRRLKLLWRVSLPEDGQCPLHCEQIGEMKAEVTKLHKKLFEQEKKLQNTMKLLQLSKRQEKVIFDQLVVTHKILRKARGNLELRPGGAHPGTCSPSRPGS
UniProt Q8NHV4: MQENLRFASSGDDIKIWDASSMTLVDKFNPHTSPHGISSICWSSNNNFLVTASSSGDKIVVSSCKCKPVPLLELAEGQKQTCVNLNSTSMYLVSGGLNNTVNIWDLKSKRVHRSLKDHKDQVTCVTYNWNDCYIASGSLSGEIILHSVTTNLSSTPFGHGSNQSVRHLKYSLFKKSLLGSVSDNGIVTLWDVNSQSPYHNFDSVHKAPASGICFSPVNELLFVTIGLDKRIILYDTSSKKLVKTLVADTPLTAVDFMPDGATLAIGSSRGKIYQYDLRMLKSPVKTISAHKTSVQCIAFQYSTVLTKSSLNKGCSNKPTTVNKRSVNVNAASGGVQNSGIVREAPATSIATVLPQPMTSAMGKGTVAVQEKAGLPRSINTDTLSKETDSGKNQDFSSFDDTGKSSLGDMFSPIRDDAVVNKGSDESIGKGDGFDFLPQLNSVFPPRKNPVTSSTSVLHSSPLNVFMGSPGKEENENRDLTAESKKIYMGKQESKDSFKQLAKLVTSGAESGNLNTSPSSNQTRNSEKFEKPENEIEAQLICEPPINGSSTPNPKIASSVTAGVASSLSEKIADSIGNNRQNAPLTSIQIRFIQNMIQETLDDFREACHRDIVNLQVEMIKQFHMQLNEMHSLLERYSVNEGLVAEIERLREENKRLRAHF
UniProt Q9BSJ2: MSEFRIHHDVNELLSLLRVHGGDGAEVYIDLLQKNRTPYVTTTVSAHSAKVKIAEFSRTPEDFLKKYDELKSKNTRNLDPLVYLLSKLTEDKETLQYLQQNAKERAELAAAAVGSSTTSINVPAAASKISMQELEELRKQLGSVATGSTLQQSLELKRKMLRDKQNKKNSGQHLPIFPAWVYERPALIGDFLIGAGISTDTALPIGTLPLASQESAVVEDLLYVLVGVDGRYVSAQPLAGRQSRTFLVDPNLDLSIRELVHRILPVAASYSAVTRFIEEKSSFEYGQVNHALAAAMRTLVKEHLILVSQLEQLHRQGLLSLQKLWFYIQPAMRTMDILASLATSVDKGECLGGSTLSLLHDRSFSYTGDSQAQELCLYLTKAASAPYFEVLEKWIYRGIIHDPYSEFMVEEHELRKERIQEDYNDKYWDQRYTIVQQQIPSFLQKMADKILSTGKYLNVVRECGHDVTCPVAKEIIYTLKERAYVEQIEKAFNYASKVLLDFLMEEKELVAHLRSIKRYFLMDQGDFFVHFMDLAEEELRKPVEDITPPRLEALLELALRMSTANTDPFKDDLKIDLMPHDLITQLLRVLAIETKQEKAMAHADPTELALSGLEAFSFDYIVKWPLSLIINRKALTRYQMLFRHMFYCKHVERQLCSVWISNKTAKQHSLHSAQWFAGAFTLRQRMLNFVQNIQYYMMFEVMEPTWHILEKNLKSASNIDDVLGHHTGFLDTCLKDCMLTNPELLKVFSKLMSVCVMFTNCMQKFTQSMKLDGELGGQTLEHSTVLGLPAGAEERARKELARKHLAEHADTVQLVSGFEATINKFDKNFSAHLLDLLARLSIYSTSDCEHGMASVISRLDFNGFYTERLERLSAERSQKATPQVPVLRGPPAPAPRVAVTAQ
UniProt Q96CW5: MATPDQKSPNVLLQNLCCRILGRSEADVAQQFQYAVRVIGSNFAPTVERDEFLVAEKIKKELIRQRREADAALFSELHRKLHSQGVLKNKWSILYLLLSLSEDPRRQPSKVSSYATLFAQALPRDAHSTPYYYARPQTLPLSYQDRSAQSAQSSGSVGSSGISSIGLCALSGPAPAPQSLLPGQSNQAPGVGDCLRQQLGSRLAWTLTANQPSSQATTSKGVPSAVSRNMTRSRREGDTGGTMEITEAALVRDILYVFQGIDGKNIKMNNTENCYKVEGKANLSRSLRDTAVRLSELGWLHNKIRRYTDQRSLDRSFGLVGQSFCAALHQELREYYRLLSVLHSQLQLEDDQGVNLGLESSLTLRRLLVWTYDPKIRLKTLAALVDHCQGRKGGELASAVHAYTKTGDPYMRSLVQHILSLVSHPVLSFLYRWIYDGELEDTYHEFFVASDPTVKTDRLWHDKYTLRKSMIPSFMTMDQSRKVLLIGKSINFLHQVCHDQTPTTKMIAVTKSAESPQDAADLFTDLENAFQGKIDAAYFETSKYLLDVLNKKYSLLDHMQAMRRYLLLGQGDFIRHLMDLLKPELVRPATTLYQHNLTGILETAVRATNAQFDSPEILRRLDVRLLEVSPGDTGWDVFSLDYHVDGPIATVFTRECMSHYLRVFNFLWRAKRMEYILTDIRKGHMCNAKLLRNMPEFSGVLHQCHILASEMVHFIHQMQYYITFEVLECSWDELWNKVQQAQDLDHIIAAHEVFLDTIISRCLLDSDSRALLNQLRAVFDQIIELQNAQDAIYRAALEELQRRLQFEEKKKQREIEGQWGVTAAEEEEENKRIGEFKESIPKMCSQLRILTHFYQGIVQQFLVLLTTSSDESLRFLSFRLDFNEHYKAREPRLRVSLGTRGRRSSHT
UniProt Q15154: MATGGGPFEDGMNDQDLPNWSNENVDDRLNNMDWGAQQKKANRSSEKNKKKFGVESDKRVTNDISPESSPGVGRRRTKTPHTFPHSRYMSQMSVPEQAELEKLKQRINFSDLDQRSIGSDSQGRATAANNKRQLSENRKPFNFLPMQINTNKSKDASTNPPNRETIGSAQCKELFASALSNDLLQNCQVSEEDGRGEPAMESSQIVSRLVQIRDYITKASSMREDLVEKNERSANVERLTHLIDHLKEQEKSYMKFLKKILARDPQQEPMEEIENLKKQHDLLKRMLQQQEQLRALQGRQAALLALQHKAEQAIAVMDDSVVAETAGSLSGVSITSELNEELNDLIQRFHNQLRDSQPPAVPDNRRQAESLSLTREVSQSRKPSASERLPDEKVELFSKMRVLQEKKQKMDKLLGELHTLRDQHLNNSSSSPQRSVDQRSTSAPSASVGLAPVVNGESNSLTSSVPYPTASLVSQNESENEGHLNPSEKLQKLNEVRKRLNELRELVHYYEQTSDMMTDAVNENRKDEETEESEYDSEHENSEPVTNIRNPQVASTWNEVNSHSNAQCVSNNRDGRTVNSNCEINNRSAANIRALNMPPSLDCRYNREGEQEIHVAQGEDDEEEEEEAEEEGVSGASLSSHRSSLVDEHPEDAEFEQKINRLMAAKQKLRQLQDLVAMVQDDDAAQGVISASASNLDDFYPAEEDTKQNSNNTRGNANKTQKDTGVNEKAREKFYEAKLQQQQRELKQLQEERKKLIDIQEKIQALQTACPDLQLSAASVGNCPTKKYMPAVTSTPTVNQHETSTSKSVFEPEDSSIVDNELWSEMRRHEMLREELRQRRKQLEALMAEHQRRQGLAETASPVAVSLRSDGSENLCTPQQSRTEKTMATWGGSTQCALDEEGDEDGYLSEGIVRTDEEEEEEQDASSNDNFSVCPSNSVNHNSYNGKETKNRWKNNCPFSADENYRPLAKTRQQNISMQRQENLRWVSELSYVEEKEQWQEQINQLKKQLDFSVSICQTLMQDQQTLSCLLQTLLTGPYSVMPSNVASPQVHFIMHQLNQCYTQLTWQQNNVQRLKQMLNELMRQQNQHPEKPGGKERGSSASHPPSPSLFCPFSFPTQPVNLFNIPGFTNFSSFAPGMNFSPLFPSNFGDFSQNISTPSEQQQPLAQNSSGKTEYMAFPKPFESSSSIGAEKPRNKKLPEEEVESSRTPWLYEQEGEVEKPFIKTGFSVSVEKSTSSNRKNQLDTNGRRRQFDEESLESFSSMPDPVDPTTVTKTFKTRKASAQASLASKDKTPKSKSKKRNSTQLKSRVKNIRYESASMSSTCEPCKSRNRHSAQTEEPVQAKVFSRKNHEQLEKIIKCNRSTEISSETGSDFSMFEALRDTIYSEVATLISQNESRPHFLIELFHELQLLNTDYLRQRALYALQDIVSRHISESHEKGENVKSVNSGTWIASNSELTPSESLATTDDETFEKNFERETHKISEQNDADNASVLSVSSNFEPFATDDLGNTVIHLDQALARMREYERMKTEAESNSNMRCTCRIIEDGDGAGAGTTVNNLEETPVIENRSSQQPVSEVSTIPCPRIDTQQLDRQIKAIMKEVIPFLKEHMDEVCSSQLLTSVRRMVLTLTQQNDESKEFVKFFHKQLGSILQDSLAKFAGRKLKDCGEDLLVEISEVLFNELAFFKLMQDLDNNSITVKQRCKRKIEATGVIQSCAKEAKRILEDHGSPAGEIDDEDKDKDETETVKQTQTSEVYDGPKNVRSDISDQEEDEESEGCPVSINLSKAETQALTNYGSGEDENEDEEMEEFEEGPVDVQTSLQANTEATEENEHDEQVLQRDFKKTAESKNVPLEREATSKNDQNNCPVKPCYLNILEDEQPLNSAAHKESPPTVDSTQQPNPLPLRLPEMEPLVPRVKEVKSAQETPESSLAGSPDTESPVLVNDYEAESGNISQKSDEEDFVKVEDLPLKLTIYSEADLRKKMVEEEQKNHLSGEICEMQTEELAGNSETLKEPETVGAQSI

The target of this experiment is T1, eukaryotic translation initiation factor 2A (human (endogenous in Mel-ST and Mel-STR)) (UniProt Q9BY44).
T1 sequence: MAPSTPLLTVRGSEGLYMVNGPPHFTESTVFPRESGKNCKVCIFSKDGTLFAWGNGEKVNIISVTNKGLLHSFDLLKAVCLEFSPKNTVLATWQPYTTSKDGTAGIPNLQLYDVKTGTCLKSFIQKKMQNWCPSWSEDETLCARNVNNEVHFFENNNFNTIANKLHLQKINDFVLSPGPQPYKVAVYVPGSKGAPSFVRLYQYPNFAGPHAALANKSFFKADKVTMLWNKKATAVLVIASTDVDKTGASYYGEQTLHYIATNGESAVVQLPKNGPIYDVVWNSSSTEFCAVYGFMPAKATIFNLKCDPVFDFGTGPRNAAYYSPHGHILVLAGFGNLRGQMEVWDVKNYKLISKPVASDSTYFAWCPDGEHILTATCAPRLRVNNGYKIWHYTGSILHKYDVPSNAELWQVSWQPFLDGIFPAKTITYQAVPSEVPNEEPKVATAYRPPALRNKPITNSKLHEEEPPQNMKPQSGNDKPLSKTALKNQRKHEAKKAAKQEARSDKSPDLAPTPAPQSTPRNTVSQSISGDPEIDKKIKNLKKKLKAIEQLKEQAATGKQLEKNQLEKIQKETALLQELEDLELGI
Nature of the experiment: affinity purification with mass spectrometry; IP of endogenous eIF2A (anti-eIF2A Abcam ab169528 on Dynabeads A) from Mel-ST and Mel-STR lysates, IgG as negative control, with or without RNase I (100 U, 15 min, 25°C), washes in 1x NET buffer, on-bead trypsin digestion, LC-MS/MS; SAINT, BFDR ≤ 0.05.
On to AKAP9 (from UniProt Q99996 1-3907), for which the binding entry is reported as “binds”. Turning to CDK5RAP2 (from UniProt Q96SN8 1-1893), the binding result is listed as “binds”. The result for CEP350 (from UniProt Q5VT06 1-3117) reads “binds”; that for NEDD1 (from UniProt Q8NHV4 1-660), “binds”; that for NIN (from UniProt Q8N4C6 1-2090), “binds”. The result for TUBG1 (from UniProt P23258 1-451) reads “binds”. For TUBGCP2 (from UniProt Q9BSJ2 1-902), the binding result was “binds”.

On to TUBGCP3 (from UniProt Q96CW5 1-907), for which the binding result is given as “binds”.

“pericentriolar material 1 (from UniProt Q15154 1-2024)”: the binding result is on record as “binds”.

The record behind these values is paper PMC12315956.
